According to patent publication US20100144645A1 (SHIRE LLC, priority 2006, published 2010):

Test: peptide synthesis

| Substance | step yield (coupling step) | step yield (late stage modification step) |
| --- | --- | --- |
| Boc-Gly-Gly-Gly-Gly-Leu-Hydrocodone | 37% yield | – |
| Gly-Gly-Gly-Gly-Leu-Hydrocodone | – | 97% yield |
